For 38 compounds, AC50 results are on record in PubChem BioAssay AID445 (National Center for Advancing Translational Sciences (NCATS), 2006).

The list shows a part of the results. Shown are side measurements of this screen, not its main read-out; they come without a call. Most of these compounds were active or inconclusive in the main read-out, so they are no random draw. The note in brackets gives the kind of curve behind each potency; many fits are weak.

The assay in a line: IkB Signaling. Particulars: ABC-DLBCL IkBa-CBG/CBR dual luciferase ratio (green luciferase fused to IkBa over red control in OCI-Ly3 lymphoma cells), 4 h. In a few lines:
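Curves were fitted separately to fusion (green), unfused (red) and ratio luminescence, then classed by r2, magnitude and activity. Cells: OCI-Ly3, 4 h compound plus doxycycline at 37C; 10 uM MG-132 defined full response.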

Where [1] appears, read: measured here: control luc red channel unless noted.

In the case of `COc1ccc(CCNC(=O)c2ccc3c(c2)N(Cc2ccc(Cl)cc2)CCS3)c(OC)c1`, the AC50 (commonly the concentration at which the activity in the assay is half-maximal) under setting [1] was 12.6 µM [falling, partial curve]. Consider `O=C1CC(c2ccc(Cl)cc2)Sc2nc(-c3ccc(F)cc3)nn21` (centres undefined), for which, under setting [1], the half-maximal activity concentration (AC50) was 12.6 µM [falling, partial curve]. Same read-out and setting: under `COc1ccc(-c2cnc(C)o2)cc1S(=O)(=O)Nc1ccc(C)c(N(C)C)c1` stands 0.00631 µM [rising, full curve]; under `N#C/C(=C1/CCCCCN1)c1nc2ccccc2s1`, 0.126 µM [falling, full curve]; under `Cn1c(=O)[nH]c2cc(-c3noc(-c4ccc(F)cc4)n3)ccc21`, 0.126 µM [rising, full curve]. Same read-out and setting: under `CCn1c(=O)cc(SCC(=O)NCCc2ccc(OC)cc2OC)c2ccccc21` stands 31.6 µM [falling, single point]; under `CCCn1c(=O)c2sccc2n2c(CCCC(=O)Nc3cccc(CC)c3)nnc12`, 39.8 µM [falling, single point]. On the same count and under the same terms, under `Cn1c(CN2CCCCC2)nc2cc(NC(=O)c3ccc(F)cc3)ccc21` stands 10 µM [falling, partial curve]. As for `COc1ccccc1CNC(=O)CCCCn1c(=O)c2ccccc2n(CC(=O)Nc2cc(Cl)ccc2C)c1=O`, under setting [1], the AC50 is 31.6 µM [rising, single point] [measured here: IkB-luc green channel]. Take `CCOC(=O)C1(Cc2ccccc2)NC(c2ccccc2F)C2C(=O)N(CC)C(=O)C21` (centres undefined): the AC50 is, setting by setting: (measured here: IkB-luc green channel) 20 µM [falling, partial curve, poor fit]; (measured here: control luc red channel) 20 µM [falling, single point]. `O=C(CN(Cc1ccco1)C(=O)CNS(=O)(=O)c1ccc(Cl)cc1)NCc1ccc(F)cc1`: the AC50 under setting [1] is 20 µM [falling, partial curve]. Still for that read-out and setting: under `COc1ccc2c(c1)c1c(c(=O)n(-c3ccccc3C)c(=O)n1CC(=O)Nc1c(C)cccc1C)n2C` stands 1.58 µM [falling, partial curve]. `O=c1c2[nH]c3ccccc3c2nc(SCc2cccc(F)c2)n1-c1ccccc1`: under setting [1], the AC50 was 0.02 µM [falling, full curve, poor fit].

Consider `Cc1cccc(C(=O)Nc2ccccc2SCc2cc(=O)c3cccc(C)c3[nH]2)c1`, for which, under setting [1], the AC50 was 25.1 µM [falling, partial curve, poor fit].

`Cc1nnc(N2CCN(c3ccccc3F)CC2)c2c1nnn2Cc1ccccc1`: the AC50 under setting [1] was 25.1 µM [falling, partial curve]. Turning to `CCOc1ccc(NC(=O)CC2C(=O)N(c3cccc(C)c3)C(=O)N2Cc2cccnc2)cc1` (centres undefined), under setting [1], the AC50 is 15.8 µM [falling, single point]. On the same count and under the same terms, under `CCCCc1nn2c(=O)cc(COC(=O)c3ccc(NC(=O)C4CCCCC4)cc3)nc2s1` stands 0.00794 µM [falling, full curve, poor fit]. The same measure, in the same setting: under `Cc1ccc(Cn2c(=O)n(Cc3ccccc3Cl)c(=O)c3ccccc32)cc1` stands 25.1 µM [falling, single point]; under `COc1cccc(NC(=O)CN(c2ccc(C)cc2)S(=O)(=O)c2c(C)nn(C)c2C)c1`, 2 µM [falling, full curve, poor fit]; under `Cc1ccccc1C(=O)Nc1nnc(S(=O)(=O)N2CCCCCC2)s1`, 2 µM [rising, partial curve]. Still for that read-out and setting: the result for `Cc1ccc(Cl)cc1N1CCN(C(=O)C2CCN(Cc3nc(-c4cccc(Cl)c4)oc3C)CC2)CC1` reads 10 µM [falling, partial curve]. Turning to `CCc1nn2c(=O)cc(COC(=O)C(c3ccccc3)c3ccccc3)nc2s1`, the AC50 under setting [1] is 31.6 µM [falling, single point]. In the case of `Cc1cccc(-c2nc(SCC(=O)Nc3ccc4c(c3)OCCO4)c(-c3ccccc3)[nH]2)c1`, under setting [1], the AC50 is 10 µM [falling, partial curve]. The same measure, in the same setting: the result for `Cc1cc(C)cc(N(CC(=O)NCc2ccccc2Cl)S(=O)(=O)c2c(C)noc2C)c1` reads 10 µM [falling, partial curve]; that for `O=C(COc1ccccc1)Nc1ccccc1C(=O)OCc1cc(=O)n2nc(C3CC3)sc2n1`, 12.6 µM [falling, partial curve]. The same measure, in the same setting: the result for `Cc1c(C(=O)N2CCC(C)CC2)c(S(=O)(=O)N2CCN(c3ccc(Cl)cc3)CC2)c(C)n1C` reads 20 µM [falling, single point]. The same measure, in the same setting: under `Cc1ccc(Cl)cc1N1CCN(C(=O)C2CCN(Cc3nc(-c4ccc(Cl)cc4)oc3C)CC2)CC1` stands 15.8 µM [falling, partial curve]; under `CC(C)(C)OC(=O)N1CCC(c2c(C(=O)NC3CCCCC3)cnn2-c2cccc(Cl)c2)CC1`, 20 µM [falling, partial curve]; under `Cn1nccc1C(=O)NCc1ccc2c(c1)CCN2C(=O)c1ccccc1`, 7.94 µM [falling, partial curve]. Turning to `COc1ccc(-c2nc3sc(CCNC(=O)C(=O)Nc4c(C)cccc4C)c(C)n3n2)cc1`, the AC50 under setting [1] was 1.58 µM [rising, full curve, poor fit]. On the same count and under the same terms, the result for `O=C(Cn1c(=O)oc2cc(S(=O)(=O)NC3CCCC3)ccc21)Nc1ccc(F)c(F)c1` reads 12.6 µM [falling, partial curve]; that for `O=c1[nH]c(CN2CCN(C/C=C/c3ccccc3)CC2)nc2cc(Cl)ccc12`, 15.8 µM [falling, partial curve]. On the same count and under the same terms, the result for `COc1ccccc1CNC(=O)c1cnn2c(C)c(Cc3ccc(F)cc3)c(C)nc12` reads 1.26 µM [falling, full curve, poor fit]; that for `COc1cccc(C2CC(=O)Nc3c2c(=O)nc2c(C)cccn32)c1OC` (centres undefined), 6.31 µM [rising, single point]; that for `Cc1ccc(-c2nc3cc(Cl)ccc3o2)cc1NC(=O)COc1ccc(F)cc1`, 1 µM [falling, full curve].

Take `CN1CCN(C(c2cccc(Br)c2)c2sc3nc(-c4ccco4)nn3c2O)CC1` (centres undefined): under setting [1], the AC50 is 15.8 µM [rising, partial curve]. On the same count and under the same terms, the result for `CC(C)Cn1c(N)c(C(=O)COC(=O)C2CCCCC2)c(=O)n(C)c1=O` reads 15.8 µM [falling, partial curve]; that for `CC(C)CNS(=O)(=O)c1ccc(C(=O)Nc2ccc3c(c2)OCCO3)cc1`, 31.6 µM [falling, partial curve].
